Values from PubChem BioAssay AID686943 (Drosophila RNAi Screening Center, 2013).
Test: 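Fly genes whose loss alters ERK activation after insulin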 (primary screen). System: Drosophila S2R+ haemocyte-like cells expressing YFP-tagged ERK (Rolled). Reagent: long dsRNA against Drosophila genes. Challenge: insulin stimulation versus unstimulated cells; dose and duration not given. Measured: 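Per-plate z-scores of phospho-ERK immunostaining normalised to YFP-tagged ERK, measured with and without insulin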. Reading the numbers: replicate 1, z-score of dpERK with insulin and replicate 2, z-score of dpERK with insulin: higher = more active ERK per ERK-YFP after insulin; replicate 1, z-score of dpERK under basal conditions: higher = more basal active ERK per ERK-YFP; replicate 1, z-score of ERK-YFP with insulin: higher = more YFP-tagged ERK signal.
In all, the deposit lists about 23,000 reagents; this is a random part of those with a known target gene and a result. 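Extra replicates exist only for a retested subset of genes; insulin dose and duration not given; both raised and lowered dpERK matter.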 Names joined by + are all predicted targets of the reagent. Not given: the amount of reagent, the time to read-out.

no.	predicted target	dsRNA	replicate 1, z-score of dpERK with insulin	replicate 2, z-score of dpERK with insulin	replicate 1, z-score of dpERK under basal conditions	replicate 1, z-score of ERK-YFP with insulin
1	Sbp2	DRSC10766	-1.04	0.27	-0.53	0.09
2	Ndc1	DRSC15895	0.53	-0.59	0.26	-1.33
3	Or33b	DRSC03387	-0.12	-0.07	1.95	-0.16
4	CG34309	DRSC14838	0.23	0.34	1.02	-0.15
5	zen2	DRSC12633	0.63	0.21	0.42	-0.65
6	Acp33A + CG15841 (retired record)	DRSC01859	0.57	0.2	0.15	0.18
7	cbc	DRSC06957	0.62	1.48	1.27	0.55
8	vig	DRSC03630	-0.01	0.01	0.61	0.6
9	vig	DRSC03631	-0.52	-0.08	0.53	1.18
10	vig	DRSC21672	-0.4	-0.74	-1.95	2.29
11	Cpr64Ac	DRSC08462	-0.05	-0.06	0.7	-0.66
12	asRNA:CR31144 + RpL3	DRSC16834	-2.53	0.12	-2.59	-2.83
13	CG6974	DRSC16160	-0.58	0.5	0.51	0.28
14	Diap2	DRSC07444	0.82	0.52	-0.73	0.08
15	CG10600	DRSC02074	-0.32	-2.07	-0.68	-0.27
16	wrm1 + wrm2	DRSC11007	0.45	-0.37	0.24	-0.25
17	slim	DRSC06921	-0.15	-0.59	-0.05	-0.57
18	Rpe	DRSC06407	0.36	-0.77	0.27	0.68
19	CG14811	DRSC17962	0.46	-0.36	-0.25	0.19
20	Usp14	DRSC02853	0.8	-0.01	0.49	0.85
21	CG18095	DRSC01948	-0.34	-0.01	0.43	0.63
22	mia	DRSC12137	-0.64	-0.23	-0.96	0.38
23	Btnd	DRSC18316	-1.23	-0.22	-0.51	0.76
24	Tsf1	DRSC20296	0.18	-0.47	0.29	-0.06
25	sala + CG43355	DRSC01188	0.55	0.42	0.03	-0.14
26	sala + CG43355	DRSC03605	0.04	-0.2	-0.77	-0.54
27	CG6830	DRSC16124	-0.01	0.35	0.54	0.2

In a second layout: results already given.
predicted target | dsRNA | replicate 1, z-score of dpERK with insulin | replicate 2, z-score of dpERK with insulin | replicate 1, z-score of dpERK under basal conditions | replicate 1, z-score of ERK-YFP with insulin
Ndc1 | DRSC15895 | 0.53 | -0.59 | 0.26 | -1.33
Or33b | DRSC03387 | -0.12 | -0.07 | 1.95 | -0.16
CG34309 | DRSC14838 | 0.23 | 0.34 | 1.02 | -0.15
zen2 | DRSC12633 | 0.63 | 0.21 | 0.42 | -0.65

Next records follow:
no.	predicted target	dsRNA	replicate 1, z-score of dpERK with insulin	replicate 2, z-score of dpERK with insulin	replicate 1, z-score of dpERK under basal conditions	replicate 1, z-score of ERK-YFP with insulin
28	Fer1	DRSC12507	-1.02	1.1	0.51	1.53
29	Fer1	DRSC12555	-1.06	-1.15	-1.07	0.32
30	Tsp39D	DRSC03099	-0.29	0.32	0.28	-0.01
31	CG17233	DRSC10259	0.03	0.62	-1.4	0.5
32	slif	DRSC11635	-0.15	0.08	0.4	0.13
33	CG32829	DRSC00961	2.68	1.48	-0.42	-1.96
34	CG32829	DRSC22805	1.55	0.59	4.23	-2.83
35	path	DRSC10361	0.89	0.54	-0.13	-0.46
36	CG33476	DRSC22888	1.86	-2.65	-1.03	-1.14
37	Ir7a	DRSC17866	-0.22	-0.17	-0.74	0.48
38	CG14710	DRSC14933	0.06	-0.04	-0.23	1.83
39	CG8046	DRSC07059	0.78	1.3	0.27	-0.37
40	CG6749	DRSC10704	-0.36	-0.08	0.04	0.4
41	CG8306	DRSC07141	-0.01	-0.08	-0.91	0.28
42	GstO2	DRSC10691	-0.64	-0.44	-0.74	-0.07
43	CG15279	DRSC01935	0.02	0.51	0.31	0.32
44	CG14995	DRSC08452	-0.84	-3.7	-2.68	-3.1
45	Ras64B	DRSC08689	-2.42	-1.91	-0.42	-0.11
46	kat-60L1	DRSC12184	-0.4	-0.43	0.45	-0.06
47	Duba	DRSC10582	-1.64	-0.31	0.18	1.15
48	CG13046	DRSC09927	-0.09	0.45	-0.2	-0.39
49	Oamb	DRSC13433	0.65	-0.21	0.58	0.73
50	Oamb	DRSC15120	-0.57	1.05	-1.07	-2.08
51	Oamb	DRSC16763	1.2	0.26	-0.39	-0.39
52	Dok	DRSC18204	-1.7	-3.02	-0.78	0.73
53	ltl	DRSC10206	0.25	0.66	-0.3	0.61
54	ltl	DRSC10870	-0.52	0.43	1.06	0.31
55	CG10508	DRSC11612	1.38	1.05	0.21	-0.17
56	CG10508	DRSC11613	0.74	-0.73	0.94	-0.07
57	HDAC6	DRSC20252	-0.34	0.37	0.24	0.47
